These are yes or no findings as the source states them, for the method shown. Binding can be weak; no strength is given.
Key:
Test in all cases: cryo-EM structure; in situ cryo-electron tomography with subtomogram averaging of about 200 nm cryo-FIB lamellae of wild-type mouse sperm; local maps of 5.5 Å to 18 Å; AlphaFold2 models fitted into the density
[1] = molecular target: T1, ANKMY1 (mouse (endogenous in sperm)) (UniProt Q8C0W1)
T1 sequence: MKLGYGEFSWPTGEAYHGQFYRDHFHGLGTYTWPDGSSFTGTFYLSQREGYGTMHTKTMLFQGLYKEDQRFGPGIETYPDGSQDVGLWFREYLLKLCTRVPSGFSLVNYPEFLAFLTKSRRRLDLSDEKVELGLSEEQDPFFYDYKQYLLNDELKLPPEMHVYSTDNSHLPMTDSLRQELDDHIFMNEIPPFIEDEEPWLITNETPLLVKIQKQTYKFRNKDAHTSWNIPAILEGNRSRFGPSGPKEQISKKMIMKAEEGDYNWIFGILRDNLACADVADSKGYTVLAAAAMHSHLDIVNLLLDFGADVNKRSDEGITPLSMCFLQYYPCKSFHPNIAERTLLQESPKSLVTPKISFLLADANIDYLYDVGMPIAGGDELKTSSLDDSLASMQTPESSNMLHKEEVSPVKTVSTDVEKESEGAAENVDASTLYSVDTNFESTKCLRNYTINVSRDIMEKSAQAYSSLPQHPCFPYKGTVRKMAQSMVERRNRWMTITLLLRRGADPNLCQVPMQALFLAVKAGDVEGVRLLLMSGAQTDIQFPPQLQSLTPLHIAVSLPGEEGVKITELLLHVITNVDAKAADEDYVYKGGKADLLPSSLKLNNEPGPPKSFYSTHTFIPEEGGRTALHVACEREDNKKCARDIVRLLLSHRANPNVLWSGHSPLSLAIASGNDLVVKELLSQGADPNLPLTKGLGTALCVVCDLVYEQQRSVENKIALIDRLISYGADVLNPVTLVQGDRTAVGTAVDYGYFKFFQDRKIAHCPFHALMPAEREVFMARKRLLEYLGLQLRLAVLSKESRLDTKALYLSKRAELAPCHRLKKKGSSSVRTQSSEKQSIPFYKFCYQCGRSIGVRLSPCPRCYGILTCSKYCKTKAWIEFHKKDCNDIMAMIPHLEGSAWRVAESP

[2] = molecular target: T2, LRRC43 (mouse (endogenous in sperm)) (UniProt Q3V0L5)
T2 sequence: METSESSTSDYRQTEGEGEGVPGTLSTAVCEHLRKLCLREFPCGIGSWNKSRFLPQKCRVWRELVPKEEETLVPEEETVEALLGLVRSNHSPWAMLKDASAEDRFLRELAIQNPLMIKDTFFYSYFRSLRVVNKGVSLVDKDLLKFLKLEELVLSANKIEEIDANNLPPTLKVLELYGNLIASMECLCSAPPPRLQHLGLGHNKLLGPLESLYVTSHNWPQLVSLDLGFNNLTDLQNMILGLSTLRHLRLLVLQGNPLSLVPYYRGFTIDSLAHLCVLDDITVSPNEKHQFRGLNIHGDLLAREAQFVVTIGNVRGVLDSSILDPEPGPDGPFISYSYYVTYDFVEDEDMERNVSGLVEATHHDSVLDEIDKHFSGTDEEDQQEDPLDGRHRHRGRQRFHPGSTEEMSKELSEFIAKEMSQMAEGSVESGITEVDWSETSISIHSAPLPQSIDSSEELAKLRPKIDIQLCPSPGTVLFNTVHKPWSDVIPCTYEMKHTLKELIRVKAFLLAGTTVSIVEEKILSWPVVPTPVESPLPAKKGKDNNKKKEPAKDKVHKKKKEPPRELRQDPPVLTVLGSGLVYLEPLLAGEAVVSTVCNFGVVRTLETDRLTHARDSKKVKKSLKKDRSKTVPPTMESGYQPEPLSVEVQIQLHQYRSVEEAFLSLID

[3] = molecular target: T3, SPAG6 (mouse (endogenous in sperm)) (UniProt Q9JLI7)
T3 sequence: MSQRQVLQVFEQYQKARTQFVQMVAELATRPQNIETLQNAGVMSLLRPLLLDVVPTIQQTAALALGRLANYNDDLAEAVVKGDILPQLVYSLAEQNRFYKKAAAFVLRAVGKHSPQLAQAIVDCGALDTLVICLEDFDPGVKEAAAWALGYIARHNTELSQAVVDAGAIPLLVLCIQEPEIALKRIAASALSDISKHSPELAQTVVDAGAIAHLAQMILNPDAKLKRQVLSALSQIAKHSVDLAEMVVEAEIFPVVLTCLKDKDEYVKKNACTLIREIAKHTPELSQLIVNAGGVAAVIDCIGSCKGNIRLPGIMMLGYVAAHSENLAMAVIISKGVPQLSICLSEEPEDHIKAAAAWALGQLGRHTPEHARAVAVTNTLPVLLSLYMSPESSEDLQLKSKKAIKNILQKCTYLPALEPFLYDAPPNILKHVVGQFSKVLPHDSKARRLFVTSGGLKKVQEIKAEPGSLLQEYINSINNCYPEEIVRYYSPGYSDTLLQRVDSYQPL

Substance | binding [1] | binding [2] | binding [3]
CCDC180 (mouse (endogenous in sperm)) | binds | – | –
CFAP46 (mouse (endogenous in sperm)) | – | binds | binds
DLEC1 (mouse (endogenous in sperm)) | – | – | binds
